# Results: article PMC8593108
# The chains behind the UniProt entries cited, without tags or fusion partners. Where a name states a change or a piece, a line headed by the entry shows the natural chain unless it says otherwise. Residues count along the entry.
# UniProt Q9I4P9: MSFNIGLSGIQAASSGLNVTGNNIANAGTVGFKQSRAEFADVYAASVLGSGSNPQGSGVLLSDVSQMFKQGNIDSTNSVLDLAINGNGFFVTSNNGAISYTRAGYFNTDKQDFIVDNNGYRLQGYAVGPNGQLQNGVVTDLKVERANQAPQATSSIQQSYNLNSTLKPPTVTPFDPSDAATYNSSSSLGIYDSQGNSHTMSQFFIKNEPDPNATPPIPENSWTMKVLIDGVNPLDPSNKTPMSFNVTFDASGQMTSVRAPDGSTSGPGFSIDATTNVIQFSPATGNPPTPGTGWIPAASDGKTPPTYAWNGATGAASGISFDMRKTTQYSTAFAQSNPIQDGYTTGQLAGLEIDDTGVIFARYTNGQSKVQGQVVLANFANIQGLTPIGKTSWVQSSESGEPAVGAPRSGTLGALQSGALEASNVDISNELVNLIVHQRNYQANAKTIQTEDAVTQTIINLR
# UniProt P56480, residues 47-529: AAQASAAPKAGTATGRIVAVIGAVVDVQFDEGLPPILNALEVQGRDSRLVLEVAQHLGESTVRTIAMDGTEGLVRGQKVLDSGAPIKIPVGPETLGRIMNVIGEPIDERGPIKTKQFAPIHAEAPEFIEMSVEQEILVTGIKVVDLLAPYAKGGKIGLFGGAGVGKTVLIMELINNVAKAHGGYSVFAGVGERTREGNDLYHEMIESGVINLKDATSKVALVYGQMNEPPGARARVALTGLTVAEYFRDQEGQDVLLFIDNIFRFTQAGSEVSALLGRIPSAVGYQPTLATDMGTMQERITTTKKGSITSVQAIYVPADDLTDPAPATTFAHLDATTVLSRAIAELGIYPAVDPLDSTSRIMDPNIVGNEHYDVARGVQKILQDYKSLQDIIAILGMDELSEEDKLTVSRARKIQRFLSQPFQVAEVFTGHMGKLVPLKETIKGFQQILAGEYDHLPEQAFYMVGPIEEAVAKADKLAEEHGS
# No constants are given. Whether binding was seen depends on the method and setting. A result given as binding can be weak or reduced; the word gives no strength. For some of these results: Binding seen in cells or lysates may run through a third protein.
# Assays:
# [1] = target: recombinant Pseudomonas aeruginosa wild-type flagellar hook protein FlgE (Pseudomonas aeruginosa) (UniProt Q9I4P9); experiment: pull-down; 500 μg purified His-tagged FlgE or FlgEM on 30 μl Ni-NTA beads, incubated 8 h at 4°C with 200 μg plasma membrane proteins from HUVECs or SVECs; five washes; blot with anti-ATP5B antibody, anti-His as loading control; only the target purified
# [2] = target: ATP synthase subunit β (ATP5B), human, ectopic on HUVEC plasma membrane (human (endogenous in HUVEC)) (UniProt P06576); experiment: flow cytometry on cells; HUVECs and SVECs in ice-cold PBS (2% FBS) with FlgE or FlgEM at 10 μg/ml, 40 min, 4°C, stained with FITC-anti-His; in blocking settings cells pretreated with anti-ATP5B antibodies (50 μg/ml), isotype IgG or Pc-B/Pc-F peptides (50 μM); only the binder purified
# [3] = target: ATP synthase subunit β (ATP5B), mouse, ectopic on SVEC plasma membrane (mouse (endogenous in SVEC)) (UniProt P56480); experiment: as above
Substance,binding [1],binding [2],binding [3]
"ATP synthase subunit β (ATP5B), human, ectopic on HUVEC plasma membrane (from UniProt P06576 48-529)",binds,–,–
recombinant Pseudomonas aeruginosa wild-type flagellar hook protein FlgE (from UniProt Q9I4P9),–,binds,binds
"ATP synthase subunit β (ATP5B), mouse, ectopic on SVEC plasma membrane (from UniProt P56480 47-529)",binds,–,–
